Assay [1] has as its target HRas in H-Ras^V12 oncogene-transformed cells (PH3MT) (UniProt P01112). Kind of assay: co-immunoprecipitation, PH3MT cells.
For assay [2] the target is unchanged. The assay is described as follows: co-immunoprecipitation with anti-HRas from PH3MT whole cell lysate, Western blot; interaction said to be enhanced upon EGF stimulation.

These are yes or no findings as the source states them, for the method shown. Binding seen in cells or lysates may run through a third protein. Some results given as binding are weak or reduced against the parent protein; the word gives no strength.

B1: Sprouty2 (endogenous, in PH3MT human fibroblast lysates) (protein)
chain: MEARAQSGNGSQPLLQTPRDGGRQRGEPDPRDALTQQVHVLSLDQIRAIRNTNEYTEGPTVVPRPGLKPAPRPSTQHKHERLHGLPEHRQPPRLQHSQVHSSARAPLSRSISTVSSGSRSSTRTSTSSSSSEQRLLGSSFSSGPVADGIIRVQPKSELKPGELKPLSKEDLGLHAYRCEDCGKCKCKECTYPRPLPSDWICDKQCLCSAQNVIDYGTCVCCVKGLFYHCSNDDEDNCADNPCSCSQSHCCTRWSAMGVMSLFLPCLWCYLPAKGCLKLCQGCYDRVNRPGCRCKNSNTVCCKVPTVPPRNFEKPT
Consider B1, for which the binding result in assay [1] and in assay [2] was “binds” throughout.

Values taken from patent US20070066522A1.
